PubChem BioAssay AID624297 (National Center for Advancing Translational Sciences (NCATS), 2012)
In all, about 340,000 compounds went through this assay and about 6,200 (1.8%) were called active. The shares of active, inactive and inconclusive entries below differ from those in the screen. The call rests on the fitted dose curve; in most records, active means well fitted activation curve with a large enough effect; inconclusive means small, poorly fitted or top-dose-only effect; inactive means no such curve, though single readings can be large or run the other way. A potency beside an inconclusive call is a rough fit, not a confirmed value.

Assay: A quantitative high throughput screen for small molecules that induce DNA re-replication in SW480 colon adenocarcinoma cells. Further: nearly all actives have a fitted effect of over 55% in size.
Conditions: Hoechst DNA content imaging, 48 h; series mostly up to 46.1 µM
How it was run: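 Readout is total intensity of Hoechst-stained nuclei, excited at 405 nm and collected at 500-530 nm. Compound treatment lasted 48 hr at 37 C in 5% CO2 before staining.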
Potency means the concentration at half of the fitted maximal effect.

SMILES	Potency
CCOC(=O)Cn1c(=NC(=O)c2nc3ccccc3s2)sc2cc(S(N)(=O)=O)ccc21	inconclusive: 29.1 µM [activator, single point]
CC(CN1CCNCC1)(NS(=O)(=O)c1ccccc1)c1ccccc1 (centres undefined)	inconclusive: 29.1 µM [activator, single point]
CN(Cc1ccccc1)C(=O)c1nc2ccccn2c1CN1CCc2sccc2C1	inactive
NC(=O)SCC(=O)Nc1ccc(Cl)cc1	inactive
O=C(Cc1ccccc1)Nn1c(O)c(/C=C2\C=Nc3ccccc32)sc1=S	inconclusive: 10.3 µM [activator, partial curve, poor fit]
COc1ccc(OC)c(/C=N/NC(=O)c2[nH]nc3c2CCc2ccccc2-3)c1	inconclusive: 29.1 µM [activator, single point]
COc1ccc(C(=O)NC(=S)NNC(=O)c2cnccn2)cc1OC	inconclusive: 3.26 µM [activator, full curve]
Cc1ccc(NC(=O)Cn2c(=O)oc3cc(S(=O)(=O)N4CCC(C)CC4)ccc32)cc1C	inconclusive: 20.6 µM [activator, single point]
CC(n1cnnn1)C12CC3CC(CC(C3)C1)C2 (centres undefined)	inactive
CNS(=O)(=O)c1ccc(CCC(=O)N2CCN(c3ccccc3OC)CC2)cc1	inconclusive: 20.6 µM [activator, single point]
COC(CNC(=O)c1ccc2c3c(onc13)-c1ccccc1C2=O)OC	inconclusive: 23.1 µM [activator, single point]
O=C(Nc1ccc(S(=O)(=O)N2CCCC2)cc1)c1ccc(Cl)nc1	inconclusive: 18.4 µM [activator, single point]
CCC(SC1=NCCS1)C(=O)Nc1ccc(S(N)(=O)=O)cc1 (centres undefined)	inactive
COc1ccc2nc(NCCNC(=S)NCCCN3CCOCC3)c(C#N)cc2c1	inconclusive: 14.6 µM [activator, single point]
Cc1cnc(C(=O)OCC(=O)c2cc(C)n(C)c2C)cn1	inconclusive: 6.51 µM [activator, single point]
O=C(COC(=O)c1cccs1)NCCC1=CCCCC1	inactive
CC(/C=N/NC(=O)c1ccc(Cn2cc([N+](=O)[O-])cn2)o1)=C\c1ccccc1	inactive
CC1CCCC=CC2CC(OC(=O)CN(C)C)CC2C(O)C=CC(=O)O1 (centres undefined)	inconclusive: 1.46 µM [activator, full curve]
CC(C)n1cc(CN2CCC(C(=O)Nc3ccc(Oc4ccccc4F)cc3)CC2)cn1	inconclusive: 2.31 µM [activator, full curve, poor fit]

Of the compounds above, these contain a thiophene ring, fused or not.
SMILES	Potency
CN(Cc1ccccc1)C(=O)c1nc2ccccn2c1CN1CCc2sccc2C1	inactive
O=C(COC(=O)c1cccs1)NCCC1=CCCCC1	inactive
